Reference: publication PMC10404973
These are yes or no findings as the source states them, for the method shown. Binding seen in cells or lysates may run through a third protein. Some entries that bind do so weakly or less than the wild type. For some assays here: Where a sequence is shown, tags or fusion partners need not be part of it.

Protein sequences, listed by entry. Tags and fused reporters are not part of them.
UniProt Q03164: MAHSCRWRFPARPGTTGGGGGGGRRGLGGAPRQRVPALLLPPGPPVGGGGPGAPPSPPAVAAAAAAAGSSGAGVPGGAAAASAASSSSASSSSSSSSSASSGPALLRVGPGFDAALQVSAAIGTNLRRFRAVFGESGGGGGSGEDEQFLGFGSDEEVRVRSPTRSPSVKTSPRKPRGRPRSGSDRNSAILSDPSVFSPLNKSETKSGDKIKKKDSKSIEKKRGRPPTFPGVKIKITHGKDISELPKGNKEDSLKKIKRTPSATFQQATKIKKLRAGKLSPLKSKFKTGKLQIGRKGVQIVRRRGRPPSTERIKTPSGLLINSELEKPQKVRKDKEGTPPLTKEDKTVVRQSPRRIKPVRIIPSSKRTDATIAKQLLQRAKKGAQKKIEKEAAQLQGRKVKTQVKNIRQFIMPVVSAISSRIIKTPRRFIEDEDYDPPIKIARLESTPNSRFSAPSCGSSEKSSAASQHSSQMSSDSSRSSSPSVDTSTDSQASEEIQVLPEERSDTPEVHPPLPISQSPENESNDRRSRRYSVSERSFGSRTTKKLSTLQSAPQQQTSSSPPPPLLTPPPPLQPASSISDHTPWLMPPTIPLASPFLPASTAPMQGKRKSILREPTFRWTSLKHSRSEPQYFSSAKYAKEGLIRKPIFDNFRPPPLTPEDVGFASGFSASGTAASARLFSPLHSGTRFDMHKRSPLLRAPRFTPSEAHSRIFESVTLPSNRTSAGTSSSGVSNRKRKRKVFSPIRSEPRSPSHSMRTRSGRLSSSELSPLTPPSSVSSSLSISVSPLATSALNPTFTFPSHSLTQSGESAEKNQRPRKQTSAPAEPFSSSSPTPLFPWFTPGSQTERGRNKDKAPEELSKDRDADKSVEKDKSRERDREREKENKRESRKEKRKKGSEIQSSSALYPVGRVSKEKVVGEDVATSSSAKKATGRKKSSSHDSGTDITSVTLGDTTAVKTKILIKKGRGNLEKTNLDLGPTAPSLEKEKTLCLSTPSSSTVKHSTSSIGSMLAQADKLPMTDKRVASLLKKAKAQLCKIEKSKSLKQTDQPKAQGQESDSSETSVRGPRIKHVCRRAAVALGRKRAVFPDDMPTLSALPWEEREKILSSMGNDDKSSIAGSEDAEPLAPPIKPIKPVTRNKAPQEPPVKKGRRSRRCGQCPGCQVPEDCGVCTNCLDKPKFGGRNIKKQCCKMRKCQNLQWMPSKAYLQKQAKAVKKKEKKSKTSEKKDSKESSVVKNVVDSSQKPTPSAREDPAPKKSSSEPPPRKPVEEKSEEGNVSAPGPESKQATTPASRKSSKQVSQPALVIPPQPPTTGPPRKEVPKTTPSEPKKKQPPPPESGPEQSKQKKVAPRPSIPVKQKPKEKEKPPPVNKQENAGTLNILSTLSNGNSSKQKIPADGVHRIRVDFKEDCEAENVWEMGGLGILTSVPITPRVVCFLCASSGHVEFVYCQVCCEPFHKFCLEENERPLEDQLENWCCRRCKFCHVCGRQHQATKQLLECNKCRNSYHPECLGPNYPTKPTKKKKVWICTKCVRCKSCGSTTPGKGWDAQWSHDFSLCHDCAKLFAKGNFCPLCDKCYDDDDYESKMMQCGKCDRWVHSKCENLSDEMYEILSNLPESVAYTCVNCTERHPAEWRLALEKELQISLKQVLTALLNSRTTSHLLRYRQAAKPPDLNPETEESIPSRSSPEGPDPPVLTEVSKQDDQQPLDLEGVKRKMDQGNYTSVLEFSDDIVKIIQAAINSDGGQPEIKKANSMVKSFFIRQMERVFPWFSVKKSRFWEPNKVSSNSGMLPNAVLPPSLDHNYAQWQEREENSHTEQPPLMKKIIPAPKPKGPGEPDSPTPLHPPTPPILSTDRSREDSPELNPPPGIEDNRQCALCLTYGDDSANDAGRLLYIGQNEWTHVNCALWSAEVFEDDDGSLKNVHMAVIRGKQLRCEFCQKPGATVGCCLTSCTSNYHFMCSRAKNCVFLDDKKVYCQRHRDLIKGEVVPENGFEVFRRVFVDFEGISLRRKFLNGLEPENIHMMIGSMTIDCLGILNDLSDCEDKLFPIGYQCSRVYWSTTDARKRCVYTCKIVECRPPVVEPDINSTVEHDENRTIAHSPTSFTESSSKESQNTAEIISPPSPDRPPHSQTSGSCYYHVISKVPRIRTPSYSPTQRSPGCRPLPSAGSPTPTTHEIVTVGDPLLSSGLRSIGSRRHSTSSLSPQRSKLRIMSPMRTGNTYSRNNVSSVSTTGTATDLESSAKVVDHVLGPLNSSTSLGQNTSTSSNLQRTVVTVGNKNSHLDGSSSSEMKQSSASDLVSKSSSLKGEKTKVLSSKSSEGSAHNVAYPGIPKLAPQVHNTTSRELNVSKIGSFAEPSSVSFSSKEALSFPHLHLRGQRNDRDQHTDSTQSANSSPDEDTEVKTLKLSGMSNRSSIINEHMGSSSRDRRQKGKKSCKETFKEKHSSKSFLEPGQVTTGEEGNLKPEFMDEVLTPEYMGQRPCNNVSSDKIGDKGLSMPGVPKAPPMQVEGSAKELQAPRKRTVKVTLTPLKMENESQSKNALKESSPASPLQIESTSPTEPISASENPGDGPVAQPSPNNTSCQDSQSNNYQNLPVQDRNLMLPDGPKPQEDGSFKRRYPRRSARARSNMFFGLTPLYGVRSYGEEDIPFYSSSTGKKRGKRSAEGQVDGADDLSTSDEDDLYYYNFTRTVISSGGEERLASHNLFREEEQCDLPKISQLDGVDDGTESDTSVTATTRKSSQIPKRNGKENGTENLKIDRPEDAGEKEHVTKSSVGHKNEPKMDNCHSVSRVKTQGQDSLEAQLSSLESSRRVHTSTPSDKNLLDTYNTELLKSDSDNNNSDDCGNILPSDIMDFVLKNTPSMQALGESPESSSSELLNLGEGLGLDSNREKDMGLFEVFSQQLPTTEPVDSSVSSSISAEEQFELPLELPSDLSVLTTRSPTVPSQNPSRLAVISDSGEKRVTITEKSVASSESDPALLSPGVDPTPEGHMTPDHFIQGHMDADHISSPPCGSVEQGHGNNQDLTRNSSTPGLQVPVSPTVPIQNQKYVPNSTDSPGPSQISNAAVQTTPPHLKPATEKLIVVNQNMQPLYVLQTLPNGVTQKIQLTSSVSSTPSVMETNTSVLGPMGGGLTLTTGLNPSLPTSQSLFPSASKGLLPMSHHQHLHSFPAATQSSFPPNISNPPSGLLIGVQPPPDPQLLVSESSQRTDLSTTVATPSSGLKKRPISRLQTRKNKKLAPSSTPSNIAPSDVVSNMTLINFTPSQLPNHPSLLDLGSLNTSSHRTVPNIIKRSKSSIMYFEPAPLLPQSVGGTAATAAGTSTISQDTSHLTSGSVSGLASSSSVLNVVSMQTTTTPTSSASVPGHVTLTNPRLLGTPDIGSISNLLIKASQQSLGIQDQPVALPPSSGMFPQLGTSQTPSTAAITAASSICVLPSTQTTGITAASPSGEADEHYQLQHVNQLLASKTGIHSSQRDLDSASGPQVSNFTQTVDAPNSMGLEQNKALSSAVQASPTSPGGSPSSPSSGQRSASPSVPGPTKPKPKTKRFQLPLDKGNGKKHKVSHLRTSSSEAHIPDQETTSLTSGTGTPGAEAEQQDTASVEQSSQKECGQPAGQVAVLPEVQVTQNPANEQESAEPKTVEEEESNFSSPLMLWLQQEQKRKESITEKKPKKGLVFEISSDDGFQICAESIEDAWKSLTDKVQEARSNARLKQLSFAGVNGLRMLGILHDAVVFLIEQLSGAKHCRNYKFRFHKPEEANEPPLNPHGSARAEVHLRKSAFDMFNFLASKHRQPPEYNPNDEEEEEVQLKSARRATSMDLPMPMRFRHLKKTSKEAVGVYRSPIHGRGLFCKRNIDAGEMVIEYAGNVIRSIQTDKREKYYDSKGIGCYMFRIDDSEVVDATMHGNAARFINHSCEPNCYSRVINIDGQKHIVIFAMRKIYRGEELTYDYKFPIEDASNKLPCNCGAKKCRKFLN
UniProt P10275: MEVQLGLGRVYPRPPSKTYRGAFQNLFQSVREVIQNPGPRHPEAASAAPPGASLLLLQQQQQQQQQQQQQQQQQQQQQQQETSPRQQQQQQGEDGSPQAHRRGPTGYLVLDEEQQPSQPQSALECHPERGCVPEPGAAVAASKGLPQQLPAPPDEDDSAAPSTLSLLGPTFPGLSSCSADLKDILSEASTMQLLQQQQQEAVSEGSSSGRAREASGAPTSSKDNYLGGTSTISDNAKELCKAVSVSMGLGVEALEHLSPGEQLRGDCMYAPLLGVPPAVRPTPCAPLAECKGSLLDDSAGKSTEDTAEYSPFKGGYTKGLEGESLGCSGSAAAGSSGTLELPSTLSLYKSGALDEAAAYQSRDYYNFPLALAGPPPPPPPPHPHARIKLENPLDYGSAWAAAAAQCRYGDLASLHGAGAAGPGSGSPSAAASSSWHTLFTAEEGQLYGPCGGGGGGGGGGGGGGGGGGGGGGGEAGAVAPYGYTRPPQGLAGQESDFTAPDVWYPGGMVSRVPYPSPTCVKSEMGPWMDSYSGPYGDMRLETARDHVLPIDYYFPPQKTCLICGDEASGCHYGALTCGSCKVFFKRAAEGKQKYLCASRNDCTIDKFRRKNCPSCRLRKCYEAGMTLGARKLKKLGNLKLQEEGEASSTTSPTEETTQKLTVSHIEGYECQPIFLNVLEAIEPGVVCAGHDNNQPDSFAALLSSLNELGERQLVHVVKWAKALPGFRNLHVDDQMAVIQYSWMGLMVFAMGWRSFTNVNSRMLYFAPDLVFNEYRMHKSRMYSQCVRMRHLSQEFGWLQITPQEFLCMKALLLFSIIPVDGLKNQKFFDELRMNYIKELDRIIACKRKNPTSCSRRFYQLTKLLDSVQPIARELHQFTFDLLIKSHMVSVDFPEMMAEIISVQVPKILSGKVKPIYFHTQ

Key:
[1] = target: T1, Histone methyltransferase enzyme SET7 (human (endogenous in LNCaP)) (UniProt Q8WTS6); experiment: co-IP; DHT-induced LNCaP cells, endogenous proteins; AR co-precipitating with MLL or SET7; cells treated with SM_1, MI-2 (3.0 uM) or sinefungin (20 uM) for 6 h or 8 h
T1 sequence: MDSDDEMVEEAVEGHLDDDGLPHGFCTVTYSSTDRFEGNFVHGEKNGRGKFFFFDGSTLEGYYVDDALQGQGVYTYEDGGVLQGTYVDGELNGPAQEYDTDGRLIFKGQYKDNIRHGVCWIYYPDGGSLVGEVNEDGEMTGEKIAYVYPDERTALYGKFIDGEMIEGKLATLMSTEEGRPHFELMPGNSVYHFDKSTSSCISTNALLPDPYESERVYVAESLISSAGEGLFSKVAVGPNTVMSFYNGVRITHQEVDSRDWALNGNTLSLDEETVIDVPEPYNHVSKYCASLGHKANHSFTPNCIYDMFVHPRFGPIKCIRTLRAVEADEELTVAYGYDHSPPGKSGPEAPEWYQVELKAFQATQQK

[2] = target: mixed-lineage leukemia protein (MLL) (human (endogenous in LNCaP)) (UniProt Q03164); experiment: as above

- binding [1]: binds
- binding [2]: binds
Substance: androgen receptor (AR) (from UniProt P10275 1-920)
